# Assay results as given in paper PMC5355340.
# Sequences of proteins named here, by UniProt entry; tags and fusion partners are left off. Residues count along the entry.
# UniProt Q9NP84, residues 28-129: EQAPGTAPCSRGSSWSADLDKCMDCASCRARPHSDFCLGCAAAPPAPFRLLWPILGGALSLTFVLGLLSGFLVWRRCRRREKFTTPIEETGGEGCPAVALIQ
# These are yes or no findings as the source states them, for the method shown. Binding seen in cells or lysates may run through a third protein. Some entries that bind do so weakly or less than the wild type.
# Target: T1, TRAF2 (human (endogenous in A172 and GBM44)) (UniProt Q12933)
# T1 sequence: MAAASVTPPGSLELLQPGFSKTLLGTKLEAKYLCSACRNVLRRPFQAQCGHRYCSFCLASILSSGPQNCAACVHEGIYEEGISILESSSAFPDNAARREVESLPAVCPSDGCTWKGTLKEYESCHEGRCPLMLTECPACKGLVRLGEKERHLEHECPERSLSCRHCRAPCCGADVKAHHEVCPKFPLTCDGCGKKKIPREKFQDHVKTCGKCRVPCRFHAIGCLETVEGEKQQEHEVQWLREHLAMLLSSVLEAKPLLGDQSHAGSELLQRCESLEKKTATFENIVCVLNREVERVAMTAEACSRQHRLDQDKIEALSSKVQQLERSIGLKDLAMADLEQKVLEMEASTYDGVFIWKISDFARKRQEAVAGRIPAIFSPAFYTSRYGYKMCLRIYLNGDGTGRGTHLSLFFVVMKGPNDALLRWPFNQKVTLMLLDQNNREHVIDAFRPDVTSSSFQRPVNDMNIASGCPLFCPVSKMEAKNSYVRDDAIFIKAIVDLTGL
# Experiment: co-IP; A172 and GBM44 cells, pre-treated with 10 uM ATA or vehicle for 1 hr, stimulated with 100 ng/mL TWEAK for 2 min; lysis in 10 mM Tris-HCl pH 7.4, 0.5% Nonidet P-40, 150 mM NaCl; 1 mg lysate immunoprecipitated with TRAF2 antibody or isotype-matched control antibody; blot for Fn14 and TRAF2
substance,measurement,value
fibroblast growth factor-inducible 14 (Fn14) (from UniProt Q9NP84 28-129) (receptor),binding,binds
